PubChem BioAssay AID1347423 (Functional Genomics Laboratory (NCATS/FGL), 2020)
In all, about 52,000 sequences went through this assay and about 210 (0.4%) were called active.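 The calls were made as follows: active = gene whose silencing raises cell survival under the drug, median off-target-corrected z-score across its silencing RNAs 2 or more; inactive = the rest.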 Some of the results follow.

Assay: Resistance to Poly (ADP-Ribose) Polymerase inhibitor: Gene Identification via Genome-wide siRNA Screen
Details: mouse BRCA2 R2336H ES cells, olaparib, CellTiter-Glo viability; hits give high values
Summary of the method: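 Genome-wide siRNA screen (3 siRNAs/gene, 20 nM) in mouse ES cells carrying hypomorphic BRCA2 R2336H; olaparib 500 nM added 48 h post-transfection, CellTiter-Glo viability 72 h later. Normalized to plate-median negative control; MAD z-scores, gene median, seed-adjusted.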
In the case of GGUUAAUUUUCAGAAUGGATT against Canx, the z-score was inactive: -0.168. In the case of CCGUCAAAAGGGAAUUUCATT against Abca17, the z-score was inactive: -2.1. In the case of GGCCAGGCUUUUGACUUUATT against Acy3, the z-score was inactive: -0.837. For GGUGUAACAUCAAAGCAGATT against BC021917, the z-score was inactive: 0.315. With “CGUGCCUGCUCAAUUAAUUTT against 1700067P10Rik” the z-score was inactive: 2.13. In the case of GGUCUACGCUAUCCUAGUUTT against Grin1, the z-score was inactive: 0.261. With CGCAGUCCUUGACAUUAAATT against Rab3a the z-score was inactive: -1.43. For GGUGUUGAGAAGAAAAAUATT against Spz1, the z-score was inactive: 0.167. In the case of GGCUACGCCCACAAAAGCUTT against Hist1h1t, the z-score was inactive: -0.11. With CCUGCAUGAUUCUUACAUGTT against Mrgprd the z-score was inactive: 0.129. With CCCAAAAAUUGACAAGUCATT against Batf the z-score was inactive: -0.197. With “CGGCUUGGACAGAUUUAUCTT against 1110060F11Rik” the z-score was inactive: 0.622. For CCAUAUCAGGCAUAGCAGUTT against Nthl1, the z-score was inactive: 0.834. In the case of GGCAAGUUUGCUAUAACCUTT against Jmy, the z-score was inactive: -0.0457. For CCAUAACCACCUGUCAUUGTT against Mrpl55, the z-score was inactive: 2.14. In the case of GCCUCCUUUGCUUCAUUUCTT against Fcer1g, the z-score was inactive: -0.0573. For UUGAACAGUGGAACAAUGATT against Fbxo27, the z-score was inactive: -1.71. In the case of GGAGUUGAAGUUUGUGACATT against Acpp, the z-score was active: 2.3. With GGAGCUCUUCCAGUUGUUUTT against Khk the z-score was inactive: -0.684. With “CGCCAGCAGAACUCAAAUATT against RP23-219P13.3” the z-score was inactive: 0.432. In the case of GCCUACAAUCGAGACAGUUTT against Sgca, the z-score was inactive: -1.75. With CGACCUGUUUGAAAACACCTT against Cnn1 the z-score was inactive: -0.00306. In the case of GCAGUUAUUACCAAUAAUGTT against Plcd, the z-score was inactive: -0.231. In the case of GGGAGAGAAGCCAUAUAAATT against Zfp7, the z-score was inactive: 1.14. For GGACUUCACCAUCUAUAACTT against Vangl1, the z-score was inactive: -0.147. In the case of “GGAAGUUGUAGAAGAAACUTT against E430026E19Rik”, the z-score was inactive: -2.86. For GAAACUGUAACAGUCUAUATT against Spp1, the z-score was inactive: -0.555. For “GGAGUAAUCAUGCUGGAGCTT against 9930104L06Rik”, the z-score was inactive: 0.406. In the case of GGAAGGCUUUCAAGAUUCATT against Gsta1, the z-score was inactive: 0.629. With “GGGUGGAGAACCAAGUUUUTT against 1810015P03Rik” the z-score was inactive: -0.913. With GGAAGAGGUGAAUGAUAAATT against Bmi1 the z-score was inactive: 0.872. For AACCUGGCUCAUAUCCCAUTT against Retnlg, the z-score was inactive: -0.465. In the case of GGAAGAAGAAGGUGUAACCTT against Defb39, the z-score was inactive: 0.889. For “GGACCAUCUCUGAUGAACCTT against 6330505N24Rik”, the z-score was inactive: 0.416. With GGUUGUUUAUGCUUUCUCUTT against Grit the z-score was inactive: 1.02. In the case of GGUCUCUUUAGUUAAGAUGTT against Wrn, the z-score was inactive: 0.208. For GGUUACUGGUAAAUGGCAGTT against Olfr1505, the z-score was inactive: 0.313. For GCUAAUGCUGCGUAUUUGCTT against Cops7b, the z-score was inactive: 0.365. In the case of GCUUUAGCUUUCCCUCGUUTT against Rsl1, the z-score was inactive: -0.606. With GCCUUUCUUCAGUGUUCACTT against Gm128 the z-score was inactive: -0.428. With GGAAUCAAAACAAUCGAAUTT against Nfia the z-score was inactive: 0.811. In the case of CGGACUAUUGUGUUGUUAATT against Atoh1, the z-score was inactive: 1.65. In the case of GCUUGAAGCGAUUAUUUGUTT against Slc25a14, the z-score was inactive: -0.329. With GUUCCAGUUUAUCCCUUCUTT against Klra1 the z-score was inactive: -0.86. In the case of GGAGCUAAGGGAACAAUUATT against Psmc6, the z-score was inactive: -2.12. In the case of “GGAGGUUGUAAUAGCCUUATT against 5133400D11Rik”, the z-score was inactive: -1.25. In the case of GGUGGAUCGCUUUAACCUGTT against Acd, the z-score was inactive: -0.682. For CCUUCGUCUGGAUUCUUAATT against Stard3, the z-score was inactive: -1.53. In the case of CGUGUUCAAAAGAGUUUUCTT against Sos1, the z-score was inactive: 0.407. With GCCUCAGUUUGAAAUUGUUTT against Tbrg1 the z-score was inactive: -0.422. In the case of GCACUACCGUGAUGAGAUGTT against Dnaic1, the z-score was inactive: -0.692. With GCCAAAAAAGCUGUCAGUUTT against Nkx2-3 the z-score was inactive: 1.04. For GUCUCUUGGUAAAUGGCAATT against Hcrt, the z-score was inactive: 1.84. For GCAAAAAGCAGACUAUGAATT against Vezf1, the z-score was inactive: 0.326. For GGUCACUGUUAGUUAUUAATT against Tcerg1l, the z-score was inactive: 0.00562. For “GCUGAUGGACUCAAGAAAGTT against 2410018M08Rik”, the z-score was inactive: 0.348. In the case of GGAAGAGCUUUCUGGAAAUTT against Ndrg2, the z-score was inactive: -2.27. With “GGAACACUUGGGAUCCAGATT against B830009D23Rik” the z-score was inactive: -2.82. With “GGUACUUCUGGAAAAGUACTT against 5730406I15Rik” the z-score was inactive: -0.0803. For GGGCGUACUGGAAACACAUTT against Pou3f4, the z-score was inactive: 1.67. In the case of GGAGUUUGAGGAUGAAGACTT against Mapk8ip, the z-score was inactive: -0.586. In the case of GGUACAUUUCUAGCUUUGATT against Nfya, the z-score was inactive: -1.71. In the case of “CGUGCUAAAUGCUUGUGUGTT against 2610204K14Rik”, the z-score was inactive: 0.238. For GGUUCAAGUGACCAAGUUCTT against Odf3, the z-score was inactive: -0.542. For CCUGGUACAGUUUUCUAUATT against Gm1019, the z-score was inactive: 0.371. For GGAUGAAACGGGUGCCUAUTT against Kctd5, the z-score was inactive: -0.9. For “CGUUUAUCAAUGUAGGUAATT against 6530404F10Rik”, the z-score was inactive: 0.33. With GGCUUAUGUGCAUAAAAGUTT against Magoh the z-score was inactive: -1.44. With GGACUUCCUGACUAUCAUGTT against Tesc the z-score was inactive: -0.161. With GCAGCUAGAGGAGUUUCUATT against Clu the z-score was inactive: 1.51. With GGUGCUCUGUAUAAUUGGUTT against LOC433719 the z-score was inactive: -0.333. With “GGCUUAGGUGCCACAUUCUTT against 9030405D14Rik” the z-score was inactive: -3.19. In the case of GGUGAUAACCCUGAACAUATT against Rps6kb1, the z-score was inactive: 0.128. For GAAAUUUCCUAGAUGACUCTT against V1rh4, the z-score was inactive: 0.631. With GUUCAAACAGUUUUUCAGATT against Tas2r115 the z-score was inactive: 0.142. For GGGAGAAUUGGAAAGCAGUTT against Myb, the z-score was inactive: 0.973. In the case of GCAAGUAGCAUCUCUGAUUTT against Nfs1, the z-score was inactive: -1.81. With GGGAUGAACAUUUUAGGUCTT against Slc1a4 the z-score was inactive: -0.245. For GGCAAAAUCUAUUGUCUUCTT against Ran, the z-score was inactive: 0.214. With “GGAGAGAGAUGAAAUUUGATT against 4832420M10” the z-score was inactive: 1.34. In the case of “GCACACGUCCUAUAAAAAUTT against E130016E03Rik”, the z-score was inactive: -0.156. With “GGCCUAUAAUUUCUUUACGTT against 5730509K17Rik” the z-score was inactive: 0.907. In the case of GGUGAUACCUCUGUCCUGGTT against Exosc5, the z-score was inactive: -1.38. In the case of GGUGAAGUACAACUAUACUTT against Plxna1, the z-score was inactive: -0.0286. In the case of GGAGCACGGAAACUUGUUCTT against Metap1, the z-score was inactive: 1.17. For GCCACUUAACCUUCAAAAGTT against BC048502, the z-score was inactive: -0.052. In the case of “GCUUGUUCACGGACAAGAATT against 2210023C10Rik”, the z-score was inactive: 1.05. With GGAAAUCACUGCACUGGCUTT against Actc1 the z-score was inactive: 0.256. With GGAUAGCACAGCCCUACAUTT against Kcns1 the z-score was inactive: -1.3. In the case of GGACAAAAAAAUAGAAGGATT against Rrbp1, the z-score was inactive: -1.53. In the case of GGAUCUAUCUCUAGUCCCGTT against Zfp358, the z-score was inactive: -0.659. In the case of GCCCAGAUCAAUUUGAGCGTT against Tcfcp2l3, the z-score was inactive: 0.76. In the case of GGGUCAAGGUAGUAGUACCTT against Tob1, the z-score was inactive: -0.794. In the case of GGCUUAGAGUCAUCUUUAATT against Mgea6, the z-score was inactive: -0.149. In the case of GAGAAAACAUGACCUGGGUTT against Olfr456, the z-score was inactive: -0.0694. In the case of CCAUGGUCAUCCCGAUGUUTT against Olfr1454, the z-score was inactive: -1.97. For “CCGGUUCGUUCAGAAGGAGTT against 2610024A01Rik”, the z-score was inactive: -2. For “GGAAGACACUGGUUUCCAATT against 1700067P10Rik”, the z-score was inactive: 1.01. With “CCUUCUCUGCCUCGAUGAUTT against 2310016M24Rik” the z-score was inactive: -0.0938. For “GCUAAUCUUCCACUUGUAATT against 2610318I01Rik”, the z-score was inactive: -0.625. For GCAGAAGUGUCAAUAAAACTT against Synj2, the z-score was inactive: -0.0373. For GGCGCAUGUUCACAAAGUGTT against Npc1, the z-score was inactive: -0.637. With CCUACAAGCAGAGUACAAUTT against Myo10 the z-score was inactive: 0.323. With GGCGGUGCAGUUCUGUAAATT against Kif18a the z-score was inactive: -0.737.
